In PubChem BioAssay AID1508600 (Functional Genomics Laboratory (NCATS/FGL), 2020):
About 3,700 (7%) of roughly 53,000 sequences were called active.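 How the source made its calls: active means gene knockdowns whose robust z-score for IL-1 alpha signal is at least 2 or at most -2, so actives lie on both sides; inactive means the rest.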 The list shows a part of the results.

Experiment: Components of the Cytosolic LPS Sensing Pathway: Gene Identification via Genome-wide siRNA Screen;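 further: robust z of the log signal after scaling to non-targeting control siRNA wells of the plate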
Details: RAW264.7 macrophages, IL-1a HTRF, actives lie on both sides, screened at 100 nM (by protocol), cells primed 5 h with Pam3CSK4 first
Outline: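 Knockdown: 100 nM siRNA, 48h, RAW264.7. Stimulation: Pam3CSK4 5 h, then LipidA via TransIT-TKO 24 h. Output: supernatant IL-1a HTRF, negative-control-normalized, log robust z-score; viability by CellTiter-Glo.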

z-score, active:
GGCCCAUAUCUGCUCUCAUTT against Ssc5d -2.04
GCAUUAAUUGCUUCUCUUATT against Nup155 -2.35
GCUAUUUUUAUAAGGGCCATT against Sh2b2 2.94
GGUUAGAGAUUGUUCUGUUTT against Olfr267 2.02
GCAAAUAAGAUUGCGUCUGTT against Cpa2 2.89
CCUCUAUUCUCCGUCUAUGTT against Fars2 2.45
GGCAUUCGAAGGGACAGAUTT against Arg2 -2.06
GGUUGGAAAUUGGACAGGATT against Col6a3 2.22
GCAUCCCGACUACAAGUACTT against Sox21 -2.06
GCUCUGACCAUCCUUAGCUTT against Olfr938 -2.62

z-score, inactive:
GGAGGCAGGAGCAAAACAUTT against Olfr1111 -0.708
GGAUAUUUACCAUCAGUGATT against Prl7a1 -0.0908
GGACACAUGGUGUUGACCATT against Parp12 0.0379
GGAGGAAUUACAAUAGCCATT against Tenm1 1.57
GCCAAGAGACUCAAGUAGCTT against Nkg7 0.479
GGAACAACUGAAAAUGAAGTT against Ppp1r21 -1.21
GCUUCGCUCGCAUUCUUAUTT against Rsrc1 -0.299
UACAUUAGUAGAAUGGAGGTT against Mageb3 -0.598
GGUUUAAACUUUCAUGUGGTT against Dffb 0.408
GGAUAGCUGCCAACACUACTT against Baiap2l2 -0.689
GCCAUUCUUCUCUUAGAAGTT against Npepl1 -1.07
GGCUCCAUAUGGAAUGCAGTT against Ets2 0.571
GCUAUUGCCUUAGAUCCAUTT against Lrp6 0.384
GGAAGAUGAGAAAAUUCCATT against Ccni -0.44
GGACACUAUCCGUGCAUCUTT against Tsg101 -1.13
CGAAUAUGCAGGAUGGUAGTT against Dnaaf2 0.36
GGUGCAGAAGAUGUGGAUGTT against Cldn1 0.148
GGGAUAGGGUUCAAUUAGGTT against Bcl2l13 0.231
CGGCCUGUUAAAUACGCUGTT against Slc39a4 -0.463
GACAAUACCAUCUCCCACUTT against Olfr347 -0.389
GGUUUGAAUGAAUUCAAGGTT against 6030452D12Rik 0.785
GGGACAAGUUUCUUAACUGTT against F9 0.865
GCAUGUAUGUGUCGAUAAUTT against Slc33a1 -0.468
GGACAUCUUCUCCGAUAUCTT against Tgfbr2 -1.94
GGACAUAGUCUGAGGCAAGTT against Ost4 -1.34
GGUUAUAGAAUGCUUGAUUTT against Rttn 0.511
GGAAAAAGAAGUCCACACATT against 1700016D06Rik -1.18
GGUUCAAAACCAAGAGUGUTT against Ahi1 -0.453
GGAGUGGAGUGAUUUCAGATT against Pdcd6 -0.535
GGAACCGCUGAUGCUUAAGTT against Ctsl -0.726
GGAUGUUCUUGAAGAAUUCTT against Dgkb 1.04
GGGUAAAUCUACAAGAAGUTT against Snx25 0.182
GGAAGUGUCUUUAAACUUCTT against Slc25a31 0.912
GGAUUUGAGCAACUACAGUTT against Eya3 0.482
CCUACACAUCCUUAAAGUGTT against Btnl9 0.568
GGAGGUUUUGAUGGACUGUTT against Ccdc25 -0.362
GCAUUCUAUCUUGUCUGGATT against 5730522E02Rik -0.16
GAUUUUGUUUAUGGCCCAGTT against Olfr1261 0.428
AUCUCUCCUGUUCUAACACTT against Olfr26 -0.242
GGAGUCAGAAUGUAUAAAUTT against Zfp12 -1.08
GGGCCUAUGCAAUGAAACCTT against Tshr -1.66
GUUCUUAGAGCAGAAGUACTT against Zar1 -0.671
CCUACCAACUUUACAAGAUTT against Tlr3 0.537
CGAGCUUCGGAGGAAGUGATT against Zc3hav1l -0.743
GAUGAAGAAGAGCAGGCUCTT against Gm5168 1.18
GGGAAUUGGGUGUAUACAATT against Hmgcl -0.138
GGUCUUCAAAAGCAAUAAATT against Mcm3ap -1.51
GGUUUCAGAAUGGAGUUACTT against Saa2 -0.576
CCAGAGCAACUGUUGCUAATT against Itgb2l -0.0779
GCGAAAUCAACAGUCAAUUTT against Ep300 0.458
CCUGUAAUGGGAAAUGGCCTT against Adgra1 -0.7
GGGAAAUCAUCUUCUAUAATT against Pde6c 0.142
CCUAAUGAUGGCUCUUACUTT against Adgrl4 -0.0693
CCACUAUAGUCCUUAGUGUTT against Ugt2b5 -0.875
GGAACAUUCUCGACUUCCCTT against Thop1 -0.249
CCUGUGGAUUACGGCCUCATT against Ube3b -0.282
GGAGAAGUUGAAGUCCUUCTT against Msr1 -0.229
CCUGGUCUUACACCUGUCATT against Spire1 -0.0546
GCAAAAGACGAGUGAGCCUTT against Hoxa9 -1.55
GCUCCGUGUUGUCCUAAUGTT against Fndc7 0.474
CCAGUUAUCUAUCUAGUGUTT against Sash1 1.2
GGCCGUUCUGUUGACCUUATT against Ovch2 1.53
GGAUGAACUCCAGAACAUCTT against Gmfg 0.558
GGAUAACUUGCCAAAGUCUTT against Alas1 0.856
GGGUAGAUAGAUGUUCAGGTT against BB014433 0.398
GCGUGGUUACGCUAUGAUCTT against Tmem121 0.213
GGUUUUCUUCUUCAUAGCUTT against Olfr125 0.976
GGAUGACGAAGCCUAUGAUTT against Nacc2 -1.16
GGUGAGAACUUAAUCUUGGTT against Tax1bp3 0.448
GGCAUUGUCCUACAUGAGCTT against Astl 0.154
GGCAUCUGAGUGAUAUAAATT against Dcps 0.109
GCAUCACUUACAGAUAGACTT against Olfr305 -1.21
CCAAGGUGGGUUACAGUGUTT against Zc3h3 -0.216
GGAGAUGACGUGAAAACAATT against Srf -1.13
GGUAAAUAGUGACCAUGAATT against Pus7 1.49
GGUGUCUAUCUUCAACCCATT against Olfr132 0.253
GGAUCUGGUCUUAACUUAATT against Chtf8 -1.46
CCAUUUUAGCCAUCUGGUATT against Slc5a4b 0.411
GGAUGUGUCAGGAAAAUAGTT against Ctsm -0.176
GGGACCCAAGGAUAUGAAUTT against Rbsn 0.6
CGACCACACCCAAAACACUTT against Ints6 -0.553
GAUCUCAAACAUUCUAUGCTT against Lce1c -1.14
GGAGUUUCACCAGAAGGCUTT against Ttc24 1.63
GGGUAUGGGAGAAUGAUUATT against Elovl3 0.522
CCCAUACUAAAAUUGUUGATT against Adam29 0.253
GGAAACCUACUGUUGCACUTT against Wdr59 -0.627
GCUGAAUGAGAUCUUGAAATT against Hand2 0.498
GGCCUUGGGAAAUUACAGGTT against Wnt6 0.586
GGGCUCUAACAUCUUAUACTT against Tbc1d31 1.54
GGGAUGCAUUACUUACACATT against Map3k20 1.11
GAGGGAAAUACAUUCUAACTT against Nms -1.22
GCUUAAAGCUAACCUAAUGTT against Dyrk3 1.36
GACAAAACUCAUUGUUCUUTT against Taf11 1.16
CCGAAUUGAAAUCACAAGCTT against Nup43 -1.31
GGACUCAAGCUAGAACACATT against Col16a1 1.19
CCAGACACGCAUUGCGAAATT against H2-M2 0.357
GGGAAAAGUGACUAGGCUUTT against Ngb -0.331

5 records drawn at random from those above:
z-score, inactive:
GGAAAAAGAAGUCCACACATT against 1700016D06Rik -1.18
GGUUUGAAUGAAUUCAAGGTT against 6030452D12Rik 0.785
CCUGUGGAUUACGGCCUCATT against Ube3b -0.282
GGAACCGCUGAUGCUUAAGTT against Ctsl -0.726
GGAAGUGUCUUUAAACUUCTT against Slc25a31 0.912
